Like-named read-outs stand apart in the source and are kept apart here. These are yes or no findings as the source states them, for the method shown. In cells and extracts the contact can be indirect. Here binding means that the protein was enriched with, or labelled near, the bait; the list need not be complete.
Legend:
[1] = molecular target: UBE2S (human (endogenous in Huh-7 and MHCC-97H)) (UniProt Q16763); assay: affinity purification with mass spectrometry; co-immunoprecipitation of UBE2S-interacting complexes from nuclear extracts of Huh-7 cells, mass spectrometry
[2] = molecular target: UBE2S (human (endogenous in Huh-7 and MHCC-97H)) (UniProt Q16763); assay: as above; remark: listed apart in the source

By UniProt entry, the sequences of proteins in these tests, tags left out.
UniProt Q16763: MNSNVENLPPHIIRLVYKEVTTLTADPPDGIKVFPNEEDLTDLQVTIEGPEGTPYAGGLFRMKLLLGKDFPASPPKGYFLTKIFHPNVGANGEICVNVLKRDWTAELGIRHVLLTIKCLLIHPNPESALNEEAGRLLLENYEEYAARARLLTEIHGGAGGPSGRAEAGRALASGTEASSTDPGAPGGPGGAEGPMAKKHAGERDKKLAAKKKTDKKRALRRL
UniProt P07355: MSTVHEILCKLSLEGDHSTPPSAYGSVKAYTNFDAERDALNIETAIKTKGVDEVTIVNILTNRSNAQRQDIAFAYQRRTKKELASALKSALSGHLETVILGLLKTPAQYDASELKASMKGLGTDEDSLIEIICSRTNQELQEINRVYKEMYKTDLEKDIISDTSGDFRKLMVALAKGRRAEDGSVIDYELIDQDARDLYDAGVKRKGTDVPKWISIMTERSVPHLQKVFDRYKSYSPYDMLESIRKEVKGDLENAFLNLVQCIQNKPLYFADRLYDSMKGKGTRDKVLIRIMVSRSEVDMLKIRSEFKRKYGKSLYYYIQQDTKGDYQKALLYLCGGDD
UniProt Q13263: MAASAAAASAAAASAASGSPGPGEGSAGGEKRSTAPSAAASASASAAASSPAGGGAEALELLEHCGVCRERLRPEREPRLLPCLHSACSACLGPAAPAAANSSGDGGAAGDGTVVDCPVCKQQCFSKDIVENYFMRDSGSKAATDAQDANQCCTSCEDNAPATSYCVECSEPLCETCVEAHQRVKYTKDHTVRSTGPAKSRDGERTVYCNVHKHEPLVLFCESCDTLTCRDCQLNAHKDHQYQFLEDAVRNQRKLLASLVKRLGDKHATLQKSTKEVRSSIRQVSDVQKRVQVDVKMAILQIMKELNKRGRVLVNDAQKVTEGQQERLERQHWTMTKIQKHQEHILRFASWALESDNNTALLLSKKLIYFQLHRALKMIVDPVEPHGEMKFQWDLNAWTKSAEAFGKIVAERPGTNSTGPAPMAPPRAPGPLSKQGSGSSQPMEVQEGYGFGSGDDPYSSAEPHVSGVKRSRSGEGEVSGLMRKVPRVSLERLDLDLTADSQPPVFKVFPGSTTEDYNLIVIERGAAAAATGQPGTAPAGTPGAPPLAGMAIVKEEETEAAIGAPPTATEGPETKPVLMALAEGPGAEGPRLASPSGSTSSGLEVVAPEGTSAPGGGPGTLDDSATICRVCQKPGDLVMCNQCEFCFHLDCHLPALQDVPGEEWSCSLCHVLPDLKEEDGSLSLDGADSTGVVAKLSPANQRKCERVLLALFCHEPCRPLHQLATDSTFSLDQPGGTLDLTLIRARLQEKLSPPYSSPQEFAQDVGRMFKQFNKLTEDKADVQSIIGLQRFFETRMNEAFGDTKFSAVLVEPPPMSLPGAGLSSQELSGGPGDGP

binding [1] | binding [2] | Molecule
binds |  | ANAX2 (from UniProt P07355 1-339)
binds |  | Tripartite motif-containing 28 (TRIM28) (from UniProt Q13263 1-835)
 | binds | ILF3 (protein, UniProt Q12906 1-894) MRPMRIFVNDDRHVMAKHSSVYPTQEELEAVQNMVSHTERALKAVSDWIDEQEKGSSEQAESDNMDVPPEDDSKEGAGEQKTEHMTRTLRGVMRVGLVAKGLLLKGDLDLELVLLCKEKPTTALLDKVADNLAIQLAAVTEDKYEILQSVDDAAIVIKNTKEPPLSLTIHLTSPVVREEMEKVLAGETLSVNDPPDVLDRQKCLAALASLRHAKWFQARANGLKSCVIVIRVLRDLCTRVPTWGPLRGWPLELLCEKSIGTANRPMGAGEALRRVLECLASGIVMPDGSGIYDPCEKEATDAIGHLDRQQREDITQSAQHALRLAAFGQLHKVLGMDPLPSKMPKKPKNENPVDYTVQIPPSTTYAITPMKRPMEEDGEEKSPSKKKKKIQKKEEKAEPPQAMNALMRLNQLKPGLQYKLVSQTGPVHAPIFTMSVEVDGNSFEASGPSKKTAKLHVAVKVLQDMGLPTGAEGRDSSKGEDSAEETEAKPAVVAPAPVVEAVSTPSAAFPSDATAEQGPILTKHGKNPVMELNEKRRGLKYELISETGGSHDKRFVMEVEVDGQKFQGAGSNKKVAKAYAALAALEKLFPDTPLALDANKKKRAPVPVRGGPKFAAKPHNPGFGMGGPMHNEVPPPPNLRGRGRGGSIRGRGRGRGFGGANHGGYMNAGAGYGSYGYGGNSATAGYSQFYSNGGHSGNASGGGGGGGGGSSGYGSYYQGDNYNSPVPPKHAGKKQPHGGQQKPSYGSGYQSHQGQQQSYNQSPYSNYGPPQGKQKGYNHGQGSYSYSNSYNSPGGGGGSDYNYESKFNYSGSGGRSGGNSYGSGGASYNPGSHGGYGGGSGGGSSYQGKQGGYSQSNYNSPGSGQNYSGPPSSYQSSQGGYGRNADHSMNYQYR
